PubChem BioAssay AID1224830 | NIAID, 2016

Purpose: 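Regulators of TLR4 signalling towards TNF-alpha in macrophage-like cells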 (primary screen)
Cells: human THP-1 monocytic leukaemia cells, TNF dual-luciferase reporter clone, PMA-differentiated to macrophage-like cells
Reagents: siRNA pool against human genes, 50 nM
Time to read-out: LPS for 4 h, given about 3 days after siRNA transfection
Treatment: bacterial LPS (TLR4 ligand), 10 ng/ml
Measured: 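Ratio of firefly to renilla light, scaled to the plate median and expressed as a robust z-score per replicate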
Direction: TNF reporter robust z-score: higher = stronger TNF reporter response to LPS
Rule for the call: 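a well is active when its z-score exceeds 2.8 or falls below -1.5; control wells carry no call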
In all, the deposit lists about 18,000 reagents; below is a random part of them. Over the whole deposit, about 2,900 (16%) got an active call. 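Calls are made per well; low scores hint the gene aids the LPS response, high scores that it dampens it.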 Entries without a mark were called inactive. Repeated entries: four replicate wells of each siRNA pool.

| gene | TNF reporter robust z-score |
| --- | --- |
| INHA | 0.86 |
| INHA | -0.49 |
| INHA | -1.5 |
| INHA | -1.19 |
| IFNA2 | -0.74 |
| IFNA2 | 0.2 |
| IFNA2 | -0.98 |
| IFNA2 | -0.16 |
| PABIR3 | -0.12 |
| PABIR3 | -0.47 |
| PABIR3 | 0.32 |
| PABIR3 | -0.27 |
| GCN1 | -1.1 |
| GCN1 | -0.75 |
| GCN1 | 0.24 |
| GCN1 | 0.55 |
| ELAVL3 | -0.12 |
| ELAVL3 | -1.67 (active) |
| ELAVL3 | -1.87 (active) |
| ELAVL3 | -1.92 (active) |
| CIDEA | -0.96 |
| CIDEA | -0.01 |
| CIDEA | -0.56 |
| CIDEA | -0.63 |
| DSG3 | -0.5 |
| DSG3 | -0.51 |
| DSG3 | -0.62 |
| DSG3 | -0.18 |
| PMP2 | 2.55 |
| PMP2 | 6.15 (active) |
| PMP2 | 2.08 |
| PMP2 | 1.33 |
| FAM3A | -0.67 |
| FAM3A | -0.24 |
| FAM3A | 0.11 |
| FAM3A | -0.33 |
| CD151 | -0.59 |
| CD151 | 2.79 |
| CD151 | 3.38 (active) |
| CD151 | 1.99 |

Reformatted: results already given.
{"gene": "ELAVL3", "TNF reporter robust z-score": -0.12}
{"gene": "ELAVL3", "TNF reporter robust z-score": "-1.67 (active)"}
{"gene": "ELAVL3", "TNF reporter robust z-score": "-1.87 (active)"}
{"gene": "ELAVL3", "TNF reporter robust z-score": "-1.92 (active)"}
{"gene": "CIDEA", "TNF reporter robust z-score": -0.96}
{"gene": "CIDEA", "TNF reporter robust z-score": -0.01}
{"gene": "CIDEA", "TNF reporter robust z-score": -0.56}
{"gene": "CIDEA", "TNF reporter robust z-score": -0.63}

Additional records follow:
| gene | TNF reporter robust z-score |
| --- | --- |
| PDZD7 | 0.79 |
| PDZD7 | 1.25 |
| PDZD7 | 0.96 |
| PDZD7 | 0.39 |
| XBP1 | -0.29 |
| XBP1 | -0.69 |
| XBP1 | -0.33 |
| XBP1 | -0.85 |
| NDUFAF7 | 1.06 |
| NDUFAF7 | 1.09 |
| NDUFAF7 | 0.96 |
| NDUFAF7 | 0.42 |
| ZNF281 | -1.21 |
| ZNF281 | -0.8 |
| ZNF281 | -0.49 |
| ZNF281 | -1.09 |
| OR2V2 | -0.89 |
| OR2V2 | 1.51 |
| OR2V2 | -0.9 |
| OR2V2 | 3.28 (active) |
| METTL17 | -0.82 |
| METTL17 | -0.21 |
| METTL17 | -0.39 |
| METTL17 | 0.77 |
| F11R | 0.47 |
| F11R | -0.3 |
| F11R | 0.86 |
| F11R | -0.23 |
| SLC26A7 | -0.07 |
| SLC26A7 | 1.17 |
| SLC26A7 | 0.7 |
| SLC26A7 | 0.5 |
| H4C1 | -0.54 |
| H4C1 | -1.05 |
| H4C1 | -0.25 |
| MYO6 | 0.3 |
| MYO6 | 1.11 |
| MYO6 | -1.41 |
| MYO6 | 0.66 |
| OR6C68 | -0.38 |
| OR6C68 | -0.92 |
| OR6C68 | -1.15 |
| OR6C68 | 0.13 |
| GZMH | -1.76 (active) |
| GZMH | -0.9 |
| GZMH | -0.14 |
| GZMH | 0.24 |
| VWA8 | -0.1 |
| VWA8 | -0.55 |
| VWA8 | -0.28 |
| VWA8 | 1.66 |
| CHEK2 | 0.06 |
| CHEK2 | 0.36 |
| CHEK2 | -1.35 |
| CHEK2 | 1.42 |
| PRORSD1P | 1.72 |
| PRORSD1P | 0.64 |
| PRORSD1P | 0.62 |
| PRORSD1P | 0.15 |
| ADGRE4P | -0.78 |
| ADGRE4P | -0.37 |
| ADGRE4P | -0.93 |
| ADGRE4P | -0.1 |
| PJA2 | -1.41 |
| PJA2 | -0.24 |
| PJA2 | -0.29 |
| PJA2 | 0.64 |
| SOX3 | -1.07 |
| SOX3 | 0.16 |
| SOX3 | 0.88 |
| SOX3 | 1.03 |
